Test results published in PubChem BioAssay AID278 (DTP/NCI, 2004).
Several values for one entry are separate records, joined by “and”; a condition that tells them apart may be missing. Equal values may be shown once. Results filed as inconclusive are left out.

System: nude mice, A549 intrarenal xenograft, tumor weight change
Assay: NCI In Vivo Anticancer Drug Screen. Data for tumor model A549 Human Adenocarcinoma of Lung with characteristics of Type II Alveolar Epithelial cells (intrarenal inoculation) in NU/NU BALB/C (nude) mice
Details: endpoint: mean tumor weight change, schedule: Q04DX003 (ip), vehicle: Klucel (hydroxypropylcellulose) (HPC), higher = larger tumour
Method: The antitumor activity of compounds was measured in mice bearing transplantable tumors. Survival or tumor size were measured and the results are expressed as the measurement made in the treated group (T) divided by the measurement made in the vehicle treated control group (C). The tumor model used in this assay is A549 Human Adenocarcinoma of Lung with characteristics of Type II Alveolar Epithelial cells (intrarenal inoculation) in NU/NU BALB/C (nude) mice

Structure (SMILES): CCOC(=O)NC1CCc2cc(OC)c(OC)c(OC)c2-c2ccc(OC)c(=O)cc21 (stereo not drawn)
- T/C (dose: 1.0 mg/kg/injection): 74 % of control
- T/C (dose: 2.0 mg/kg/injection): 62 % of control
- T/C (dose: 4.0 mg/kg/injection): 14 % of control
- T/C (dose: 8.0 mg/kg/injection): 31 % of control

Structure (SMILES): COc1c(O)cc2c(c1OC)-c1ccc(SC)c(=O)cc1C(NC(C)=O)CC2 (stereo not drawn)
- T/C (dose: 4.32 mg/kg/injection): 2 % of control
- T/C (dose: 5.0 mg/kg/injection): 12 % of control and 25 % of control
- T/C (dose: 7.2 mg/kg/injection): 63 % of control
- T/C (dose: 12.0 mg/kg/injection): 20 % of control and 43 % of control
